Reference: the supplement of paper PMC12823440, “Inhibitors supercharge kinase turnover through native proteolytic circuits” (Nature, 2025)
Counter-ions that a name gives are not always drawn. This is one part of the list. Hit calls seldom repeat between salt and free forms of one compound.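 In K562 cells expressing nanoluciferase-fused kinases, luminescence was recorded at 4 h intervals between 2 and 18 h, normalized as percent of control with DMSO at 100% and a positive control at 0%. A significant (2 sigma) signal drop marks a time point as decreased. The authors' rule for a hit is not shown and takes in more than the number of time points.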

Chains of the proteins cited; added tags and fusions are not shown. Lines headed by an entry give the natural chain unless they say otherwise; changes in a name come on top.
UniProt P29317, whole entry: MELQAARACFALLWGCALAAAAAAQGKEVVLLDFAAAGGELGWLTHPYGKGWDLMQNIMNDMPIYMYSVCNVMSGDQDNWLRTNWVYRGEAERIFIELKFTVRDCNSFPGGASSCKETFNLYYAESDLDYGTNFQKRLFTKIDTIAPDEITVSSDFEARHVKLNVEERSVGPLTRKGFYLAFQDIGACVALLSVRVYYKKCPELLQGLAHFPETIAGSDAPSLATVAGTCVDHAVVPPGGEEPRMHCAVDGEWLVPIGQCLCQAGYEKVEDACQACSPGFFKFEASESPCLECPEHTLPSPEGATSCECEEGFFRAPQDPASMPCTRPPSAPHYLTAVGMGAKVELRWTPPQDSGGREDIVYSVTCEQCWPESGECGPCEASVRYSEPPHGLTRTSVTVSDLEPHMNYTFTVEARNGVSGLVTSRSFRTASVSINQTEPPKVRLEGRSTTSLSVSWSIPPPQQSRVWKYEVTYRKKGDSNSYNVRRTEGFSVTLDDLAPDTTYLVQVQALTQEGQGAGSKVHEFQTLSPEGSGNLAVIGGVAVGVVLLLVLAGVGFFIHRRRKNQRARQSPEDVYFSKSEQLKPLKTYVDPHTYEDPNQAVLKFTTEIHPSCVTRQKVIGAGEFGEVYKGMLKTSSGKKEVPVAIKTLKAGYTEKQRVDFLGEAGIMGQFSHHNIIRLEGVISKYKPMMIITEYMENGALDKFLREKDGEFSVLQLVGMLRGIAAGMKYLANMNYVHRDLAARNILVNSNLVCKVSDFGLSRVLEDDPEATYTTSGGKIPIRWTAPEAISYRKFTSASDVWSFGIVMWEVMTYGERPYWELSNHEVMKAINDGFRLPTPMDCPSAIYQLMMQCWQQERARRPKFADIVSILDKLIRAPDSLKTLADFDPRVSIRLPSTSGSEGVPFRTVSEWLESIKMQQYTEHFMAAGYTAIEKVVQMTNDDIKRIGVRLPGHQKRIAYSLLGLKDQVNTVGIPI
UniProt P21860, whole entry: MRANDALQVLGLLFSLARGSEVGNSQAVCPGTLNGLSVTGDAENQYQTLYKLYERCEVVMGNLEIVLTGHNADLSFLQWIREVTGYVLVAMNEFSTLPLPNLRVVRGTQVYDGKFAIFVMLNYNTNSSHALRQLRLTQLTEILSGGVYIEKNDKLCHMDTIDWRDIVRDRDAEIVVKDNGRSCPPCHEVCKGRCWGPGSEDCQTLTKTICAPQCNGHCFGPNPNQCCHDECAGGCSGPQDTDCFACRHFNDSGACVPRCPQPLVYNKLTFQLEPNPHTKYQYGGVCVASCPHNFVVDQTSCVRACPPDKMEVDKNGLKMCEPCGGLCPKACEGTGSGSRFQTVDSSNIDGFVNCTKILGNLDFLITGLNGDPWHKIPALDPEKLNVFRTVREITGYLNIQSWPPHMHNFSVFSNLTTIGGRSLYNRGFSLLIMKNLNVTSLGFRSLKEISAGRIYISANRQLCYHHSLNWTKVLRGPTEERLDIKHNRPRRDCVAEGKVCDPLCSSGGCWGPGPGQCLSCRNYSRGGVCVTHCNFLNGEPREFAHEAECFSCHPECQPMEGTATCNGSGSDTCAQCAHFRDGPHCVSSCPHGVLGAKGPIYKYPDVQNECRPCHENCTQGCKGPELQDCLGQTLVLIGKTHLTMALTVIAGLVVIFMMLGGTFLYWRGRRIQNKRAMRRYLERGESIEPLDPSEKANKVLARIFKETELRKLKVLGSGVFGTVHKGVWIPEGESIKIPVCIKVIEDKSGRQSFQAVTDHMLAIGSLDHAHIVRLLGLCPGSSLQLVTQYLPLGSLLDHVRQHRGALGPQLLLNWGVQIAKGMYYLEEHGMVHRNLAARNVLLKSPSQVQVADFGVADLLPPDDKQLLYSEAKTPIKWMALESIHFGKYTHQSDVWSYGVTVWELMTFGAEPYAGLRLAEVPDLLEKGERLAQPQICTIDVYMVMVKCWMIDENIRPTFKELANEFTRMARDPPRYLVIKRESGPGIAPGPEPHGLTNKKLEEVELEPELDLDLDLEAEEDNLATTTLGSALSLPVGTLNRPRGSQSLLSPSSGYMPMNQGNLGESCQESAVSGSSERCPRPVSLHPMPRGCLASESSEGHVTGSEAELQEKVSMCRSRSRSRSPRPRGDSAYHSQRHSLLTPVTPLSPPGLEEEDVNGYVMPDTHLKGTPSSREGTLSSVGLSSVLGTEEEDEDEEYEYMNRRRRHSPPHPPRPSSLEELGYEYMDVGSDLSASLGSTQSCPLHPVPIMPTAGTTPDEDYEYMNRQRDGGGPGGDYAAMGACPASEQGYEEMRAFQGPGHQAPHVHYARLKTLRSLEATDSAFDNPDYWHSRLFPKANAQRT
UniProt O75460: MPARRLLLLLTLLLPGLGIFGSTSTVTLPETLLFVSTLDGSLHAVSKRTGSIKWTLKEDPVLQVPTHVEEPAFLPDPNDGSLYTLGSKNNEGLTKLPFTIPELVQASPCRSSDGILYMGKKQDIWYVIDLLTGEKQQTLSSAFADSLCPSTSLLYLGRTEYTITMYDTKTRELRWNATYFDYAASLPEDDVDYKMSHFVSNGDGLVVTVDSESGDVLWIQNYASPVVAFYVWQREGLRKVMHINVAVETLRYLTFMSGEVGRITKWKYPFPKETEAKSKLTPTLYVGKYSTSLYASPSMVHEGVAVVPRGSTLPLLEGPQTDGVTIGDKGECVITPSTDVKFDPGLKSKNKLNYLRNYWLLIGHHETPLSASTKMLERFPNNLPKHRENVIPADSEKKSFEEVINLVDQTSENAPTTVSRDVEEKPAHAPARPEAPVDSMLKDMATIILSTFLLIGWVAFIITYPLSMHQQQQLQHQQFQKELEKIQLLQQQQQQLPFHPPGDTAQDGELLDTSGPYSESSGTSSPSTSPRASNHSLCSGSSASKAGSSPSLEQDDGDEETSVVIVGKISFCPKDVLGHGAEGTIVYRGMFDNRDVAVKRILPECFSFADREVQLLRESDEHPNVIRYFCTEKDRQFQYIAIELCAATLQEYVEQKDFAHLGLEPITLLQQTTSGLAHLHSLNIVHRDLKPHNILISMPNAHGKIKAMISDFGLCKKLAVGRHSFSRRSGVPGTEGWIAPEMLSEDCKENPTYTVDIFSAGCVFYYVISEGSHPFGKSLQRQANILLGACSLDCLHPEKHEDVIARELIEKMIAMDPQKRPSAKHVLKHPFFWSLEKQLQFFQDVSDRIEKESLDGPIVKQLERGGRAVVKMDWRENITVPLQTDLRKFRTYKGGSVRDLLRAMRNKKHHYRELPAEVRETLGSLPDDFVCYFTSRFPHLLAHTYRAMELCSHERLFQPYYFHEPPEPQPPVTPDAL
UniProt P11362, whole entry, looked up: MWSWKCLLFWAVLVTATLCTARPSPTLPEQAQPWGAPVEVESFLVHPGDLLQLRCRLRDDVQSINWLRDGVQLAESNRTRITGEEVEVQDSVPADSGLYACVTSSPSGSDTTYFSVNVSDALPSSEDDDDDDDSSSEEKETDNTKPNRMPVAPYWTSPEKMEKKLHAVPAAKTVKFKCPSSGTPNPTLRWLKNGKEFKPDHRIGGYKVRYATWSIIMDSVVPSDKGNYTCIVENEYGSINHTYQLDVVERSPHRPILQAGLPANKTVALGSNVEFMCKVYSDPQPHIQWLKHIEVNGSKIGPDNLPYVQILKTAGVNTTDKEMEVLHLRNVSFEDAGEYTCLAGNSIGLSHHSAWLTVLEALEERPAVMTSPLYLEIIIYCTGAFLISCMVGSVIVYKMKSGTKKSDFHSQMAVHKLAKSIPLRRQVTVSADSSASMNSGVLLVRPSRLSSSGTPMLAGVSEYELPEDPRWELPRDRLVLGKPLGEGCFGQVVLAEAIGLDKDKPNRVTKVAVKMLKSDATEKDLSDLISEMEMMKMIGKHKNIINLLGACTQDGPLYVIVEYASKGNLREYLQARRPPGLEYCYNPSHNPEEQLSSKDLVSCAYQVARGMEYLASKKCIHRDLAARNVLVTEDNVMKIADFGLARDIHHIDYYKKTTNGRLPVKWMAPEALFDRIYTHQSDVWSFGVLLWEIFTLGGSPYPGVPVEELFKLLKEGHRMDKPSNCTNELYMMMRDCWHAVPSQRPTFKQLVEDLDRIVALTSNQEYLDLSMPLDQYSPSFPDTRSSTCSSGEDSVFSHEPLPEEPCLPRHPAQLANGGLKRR
UniProt P21802, whole entry, looked up: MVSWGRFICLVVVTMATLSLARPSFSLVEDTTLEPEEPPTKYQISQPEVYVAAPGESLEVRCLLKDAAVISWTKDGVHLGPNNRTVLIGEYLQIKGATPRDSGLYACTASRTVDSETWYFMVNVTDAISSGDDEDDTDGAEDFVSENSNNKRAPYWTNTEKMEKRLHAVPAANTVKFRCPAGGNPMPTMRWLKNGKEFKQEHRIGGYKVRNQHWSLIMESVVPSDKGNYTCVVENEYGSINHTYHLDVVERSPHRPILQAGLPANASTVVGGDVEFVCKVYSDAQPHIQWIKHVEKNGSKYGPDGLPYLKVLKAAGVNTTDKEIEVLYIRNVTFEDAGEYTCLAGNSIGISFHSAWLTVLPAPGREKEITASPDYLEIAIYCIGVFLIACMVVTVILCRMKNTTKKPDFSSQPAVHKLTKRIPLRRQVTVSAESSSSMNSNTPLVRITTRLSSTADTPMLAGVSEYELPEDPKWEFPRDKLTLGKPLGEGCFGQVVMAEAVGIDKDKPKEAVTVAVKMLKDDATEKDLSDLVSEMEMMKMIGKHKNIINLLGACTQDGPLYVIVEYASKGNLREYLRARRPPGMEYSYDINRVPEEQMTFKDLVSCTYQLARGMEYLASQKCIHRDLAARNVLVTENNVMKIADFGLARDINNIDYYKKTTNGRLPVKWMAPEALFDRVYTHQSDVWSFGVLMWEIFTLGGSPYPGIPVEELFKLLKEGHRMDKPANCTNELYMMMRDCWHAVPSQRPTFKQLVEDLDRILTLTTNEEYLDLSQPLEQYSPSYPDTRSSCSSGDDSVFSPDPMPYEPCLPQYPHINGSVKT
UniProt P22607, whole entry, looked up: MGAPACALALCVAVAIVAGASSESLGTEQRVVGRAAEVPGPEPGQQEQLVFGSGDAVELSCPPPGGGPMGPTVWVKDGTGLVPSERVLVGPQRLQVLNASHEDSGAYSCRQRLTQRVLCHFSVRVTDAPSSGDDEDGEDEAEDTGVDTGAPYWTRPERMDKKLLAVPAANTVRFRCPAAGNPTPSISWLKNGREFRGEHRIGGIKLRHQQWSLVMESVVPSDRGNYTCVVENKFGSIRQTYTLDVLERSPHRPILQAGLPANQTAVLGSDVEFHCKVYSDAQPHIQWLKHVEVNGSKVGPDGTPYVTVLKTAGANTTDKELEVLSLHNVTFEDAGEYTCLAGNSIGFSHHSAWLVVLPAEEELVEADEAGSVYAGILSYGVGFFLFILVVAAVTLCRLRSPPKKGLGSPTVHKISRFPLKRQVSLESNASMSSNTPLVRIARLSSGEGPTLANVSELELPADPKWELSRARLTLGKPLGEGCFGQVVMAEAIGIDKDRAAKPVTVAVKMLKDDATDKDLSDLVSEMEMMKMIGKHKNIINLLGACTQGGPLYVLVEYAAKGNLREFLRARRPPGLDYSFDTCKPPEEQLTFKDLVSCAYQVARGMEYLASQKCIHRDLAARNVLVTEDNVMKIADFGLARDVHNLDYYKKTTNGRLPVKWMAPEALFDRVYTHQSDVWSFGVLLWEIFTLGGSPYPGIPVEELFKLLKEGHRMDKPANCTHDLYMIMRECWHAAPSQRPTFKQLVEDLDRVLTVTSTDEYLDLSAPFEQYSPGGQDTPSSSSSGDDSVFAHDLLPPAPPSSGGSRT

Tests used:
Experiment in all cases: number of time points (of 5) at which kinase-Nluc abundance scored as decreased, DMSO-normalised (count); higher = more persistent destabilization
Details in all cases: K562; 2-18 h
EGFR_L861Q = EGFR_L861Q (UniProt P00533)
EGFR_T790M = EGFR_T790M (UniProt P00533)
EPHA2 = EPHA2 (UniProt P29317)
ERBB3 = ERBB3 (UniProt P21860)
[1] = molecular target: ERBB4_R711C (clone: ERBB4_mut) (UniProt Q15303)
ERN1 = ERN1 (UniProt O75460)
FGFR1 = FGFR1 (UniProt P11362)
FGFR2 = FGFR2 (UniProt P21802)
FGFR3 = FGFR3 (UniProt P22607)
FGR = FGR (UniProt P09769)

Measured: number of time points

C=CC(=O)N1C[C@H](COc2nc(Nc3cnn(C)c3)nc3[nH]cc(Cl)c23)[C@@H](OC)C1 (2.5 µM)
0: all assays above

Cc1nc(-c2cnn(C)c2)nc2c1[nH]c1ncc(-c3ccc(N4CCN(C)CC4)cc3)cc12 [GNE 220 (hydrochloride)] (10 µM)
0: all assays above

C=CC(=O)Nc1cccc(-c2cccc3cnc(Nc4ccc(N5CCN(CCO)CC5)c(F)c4F)nc23)c1 [Olafertinib] (2.5 µM)
0: all assays above

Cc1ccc(Oc2nc3cc(-c4ccc(-c5ccccc5)cc4)c(Cl)cc3[nH]2)cc1C(=O)O (10 µM)
0: all assays above

Cc1cc2sc(NC(=O)Cc3ccccc3)nc2cc1Cl (10 µM)
0: all assays above

CN1CCC(c2ccccc2CC(C)(C)Nc2nc(N3CCOCC3)nc(-n3c(C(F)F)nc4ccccc43)n2)CC1 [Zandelisib] (10 µM)
0: all assays above

COc1ccc2cc(-c3nc(-c4ccc([S+](C)[O-])cc4)[nH]c3-c3ccncc3)ccc2c1 (stereo not given) [Tie2 kinase inhibitor 1] (2.5 µM)
0: all assays above

CCn1c(=O)c(-c2cc[nH]n2)cc2c(C)nc(N)nc21 [Voxtalisib] (10 µM)
1: [1]
2: EGFR_L861Q
0: all other assays above

Cc1c(-c2ccc(C(N)=O)c3[nH]c4cc(C(C)(C)O)ccc4c23)cccc1-n1cnc2ccccc2c1=O (2.5 µM)
0: all assays above

CC(C)(C)n1nc(Cc2ccccc2O)c2c(N)ncnc21 (10 µM)
0: all assays above

C[C@@H]1COCCN1c1nc(-c2cnc(N)cc2C(F)F)nc(N2[C@H](C)COC[C@@H]2C)n1 (2.5 µM)
1: ERBB3 | [1]
0: all other assays above

Cc1ccc(C(=O)Nc2sc(Nc3ccccc3)nc2C(N)=O)cc1 (10 µM)
0: all assays above

N#Cc1c2nc3ccccc3nc2n2ccc(NC(=O)c3cccs3)cc12 (10 µM)
0: all assays above

O=Nc1c2[nH]c3ccccc3nc-2c2ccccc12 [IQ-1S (free acid)] (2.5 µM)
0: all assays above

Nc1nccc(Oc2ccc(NC(=O)c3c[nH]cc(-c4ccc(F)cc4)c3=O)cc2F)c1Cl (10 µM)
4: ERBB3 | [1] | FGFR1 | FGFR2
0: all other assays above

CC(C)c1cc(/C=C(\C#N)C(=O)NCCCc2ccccc2)cc(C(C)C)c1O (10 µM)
0: all assays above

Cc1cnc(NC2CCOCC2)nc1-n1cnc(C(=O)N[C@H](CN)c2cc(F)cc(Cl)c2)c1 (10 µM)
1: [1]
0: all other assays above

CC[C@@](C)(Nc1ccnc(-c2c[nH]c3ncccc23)n1)C(=O)NCC(F)(F)F [Decernotinib] (10 µM)
0: all assays above

Cn1cc(C2=C(c3cn(CCCSC(=N)N)c4ccccc34)C(=O)NC2=O)c2ccccc21 [Ro 31-8220 (mesylate)] (2.5 µM)
3: EGFR_L861Q | FGFR2
1: ERBB3
4: [1]
0: all other assays above

O=C(O)c1cc(=O)c2c(OCC(O)COc3cccc4oc(C(=O)O)cc(=O)c34)cccc2o1 [Cromolyn (sodium)] (10 µM)
0: all assays above

CC(C)CNc1ccnc(NCc2csc(-c3ccccc3)n2)n1 [KHS101 hydrochloride] (2.5 µM)
2: EGFR_L861Q | [1]
0: all other assays above

Cc1ccc(-c2csc3ncnc(SCCC(=O)O)c23)cc1 (10 µM)
0: all assays above

Cc1cc(Nc2ncnc3ccc(-c4ccc(CNCCS(C)(=O)=O)o4)cc23)ccc1Oc1ccn2ncnc2c1 [ARRY-380 (analog )] (2.5 µM)
0: all assays above

NC(=S)n1[nH]c(-c2ccc([N+](=O)[O-])cc2)c(N=Nc2cccc(Cl)c2)c1=O (2.5 µM)
0: all assays above

CC(C)S(=O)(=O)c1ccc2nccc(Nc3ccc4scnc4c3)c2c1 (10 µM)
2: ERBB3 | FGFR2
0: all other assays above

O=C(Nc1nc(=O)n(Cc2ccc(Cl)cc2)s1)c1ccc(Cl)cc1 (10 µM)
0: all assays above

Nc1n[nH]c2nc(-c3ccc(NS(=O)(=O)c4cc(Cl)ccc4F)cc3)cnc12 (10 µM)
5: EGFR_T790M
0: all other assays above

CC(C)(C[C@H](N)C(=O)O)C(F)F [NV-5138 (hydrochloride)] (10 µM)
0: all assays above

COc1cc2ncnc(Nc3ccccc3)c2cc1OC (10 µM)
0: all assays above

Ordered by molecular weight (ascending): some entries from above.
COc1cc2ncnc(Nc3ccccc3)c2cc1OC (10 µM)
0: all assays above

O=C(Nc1nc(=O)n(Cc2ccc(Cl)cc2)s1)c1ccc(Cl)cc1 (10 µM)
0: all assays above

NC(=S)n1[nH]c(-c2ccc([N+](=O)[O-])cc2)c(N=Nc2cccc(Cl)c2)c1=O (2.5 µM)
0: all assays above

Further compounds follow.

CC(C)(O)[C@H]1CC[C@H](Nc2ccc3ncc(-c4cccc(C(F)(F)F)c4)n3n2)CC1 (10 µM)
0: all assays above

Nc1cccc(-c2cc3c(Oc4cccc(O)c4)ncnc3[nH]2)c1 (10 µM)
3: ERBB3 | FGFR1
2: EGFR_L861Q | [1]
4: FGFR2
0: all other assays above

C=CC(=O)Nc1cc(-n2c(=O)ccc3cnc4ccc(-c5ccc(NS(C)(=O)=O)cc5)cc4c32)ccc1C (10 µM)
3: EPHA2
0: all other assays above

CN(C)CCC=C1c2ccccc2CCc2ccccc21 [Amitriptyline (hydrochloride)] (2.5 µM)
0: all assays above

CN(C)c1nc2c(Br)c(Br)c(Br)c(Br)c2[nH]1 (10 µM)
0: all assays above

Oc1ccc(/C=C/c2cc(O)cc(O)c2)cc1 [Resveratrol] (10 µM)
0: all assays above

O=C(NCc1cccc(O)c1)Nc1nc(-c2ccncc2)cs1 (10 µM)
0: all assays above

O=C1NC(=O)/C(=C/c2ccc3nccc(-c4ccncc4)c3c2)S1 (10 µM)
3: FGFR2
1: FGFR1
0: all other assays above
